From PubChem BioAssay AID256 (DTP/NCI, 2004)
The list is a part of this screen's results and no random one: it gathers tests that were run many times, whatever their T/C, doses with no T/C, and many T/C values between a quarter and a half above the control. Other doses and runs of a compound stand elsewhere. T/C gives the treated animals as a percentage of the vehicle group. Some entries give survivors of the animals treated and no T/C: the source holds a T/C of zero for them, seemingly a mark for toxic or unscored doses. Some survivor counts are full or nearly so, which does not show that the dose was tolerated: survival well below the control is almost never listed, so the zero probably covers shortened survival too. Survivors were counted at the toxicity check, usually on the fifth day, unless a day is given; later deaths do not show. Schedule codes are those of the source, taken here to give the interval after Q, in days (D) or hours (H), and the number of doses after X. Some entries were tested several times; the results are listed from low to high. Some molecules as drawn cover several salts, stereoisomers or complexes of the source; a dose is that of the sample tested. For survival time, the PubChem record calls one and a half times the control and up active, and a quarter to a half above the control has no call in these data; cut-offs in other NCI protocols can differ. Some T/C values are followed by the survivors on the day toxicity was checked, most often the fifth; without a count, all were alive then.

Test system: CD2F1 mice, L1210 leukemia ip, survival T/C
Assay: NCI In Vivo Anticancer Drug Screen. Data for tumor model L1210 Leukemia (intraperitoneal) in CD2F1 (CDF1) mice
Settings: higher T/C = longer survival
How it was run: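 Read-out first: treated-group measurement over vehicle-control measurement, expressed as a ratio. Animals bore a transplanted tumor line and were dosed with compound or vehicle.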

[1] = T/C endpoint: mean survival time, dose: 25.0 mg/kg/injection, schedule: Q01DX009 (ip), vehicle: saline with Tween-80
[2] = T/C endpoint: mean survival time, dose: 200.0 mg/kg/injection, schedule: Q04DX003 (ip), vehicle: saline with Tween-80
[3] = T/C endpoint: mean survival time, dose: 400.0 mg/kg/injection, schedule: Q04DX003 (ip), vehicle: saline with Tween-80

CN(Cc1cnc2nc(N)nc(N)c2n1)c1ccc(C(=O)N[C@@H](CCC(=O)O)C(N)=O)cc1
T/C (T/C endpoint: mean survival time, dose: 12.5 mg/kg/injection, schedule: Q01DX009 (ip), vehicle: sodium bicarbonate): 125 % of control | T/C (T/C endpoint: mean survival time, dose: 25.0 mg/kg/injection, schedule: Q01DX009 (ip), vehicle: sodium bicarbonate): 134 % of control | survivor count (T/C endpoint: mean survival time, dose: 50.0 mg/kg/injection, schedule: Q01DX009 (ip), vehicle: sodium bicarbonate): 6 of 6 | survivor count (T/C endpoint: mean survival time, dose: 100.0 mg/kg/injection, schedule: Q01DX009 (ip), vehicle: sodium bicarbonate): 2 of 6 | survivor count (T/C endpoint: mean survival time, dose: 200.0 mg/kg/injection, schedule: Q01DX009 (ip), vehicle: sodium bicarbonate): 0 of 6

NC(N)=Nc1ccc(C(=O)Oc2ccc([N+](=O)[O-])cc2)cc1
survivor count (T/C endpoint: mean survival time, dose: 400.0 mg/kg/injection, schedule: Q01DX009 (ip), vehicle: saline with Tween-80): 4 of 6

CN(Cc1ccc(C(=O)NC(CCC(=O)O)C(=O)O)cc1)Cc1cnc2nc(N)nc(N)c2n1 (configuration not stated)
T/C (T/C endpoint: mean survival time, dose: 25.0 mg/kg/injection, schedule: Q01DX009 (ip), vehicle: water): 127 % of control | T/C (T/C endpoint: mean survival time, dose: 33.0 mg/kg/injection, schedule: Q01DX009 (ip), vehicle: water): 125 % of control | T/C (T/C endpoint: mean survival time, dose: 50.0 mg/kg/injection, schedule: Q01DX009 (ip), vehicle: water): 125 and 136 % of control | T/C (T/C endpoint: mean survival time, dose: 75.0 mg/kg/injection, schedule: Q01DX009 (ip), vehicle: water): 130 % of control | T/C (T/C endpoint: mean survival time, dose: 112.0 mg/kg/injection, schedule: Q01DX009 (ip), vehicle: water): 127 % of control

ClC1CCC[N-]C1.ClC1CCC[N-]C1.[Cl][Pt+2]([Cl])([Cl])[Cl] (configuration not stated)
survivor count (T/C endpoint: mean survival time, dose: 12.5 mg/kg/injection, schedule: Q01DX009 (ip), vehicle: saline with Tween-80): 6 of 6 | survivor count [1]: 6 of 6 | survivor count (T/C endpoint: mean survival time, dose: 50.0 mg/kg/injection, schedule: Q01DX009 (ip), vehicle: saline with Tween-80): 1 of 6 | survivor count (T/C endpoint: mean survival time, dose: 100.0 mg/kg/injection, schedule: Q01DX009 (ip), vehicle: saline with Tween-80): 0 of 6 | survivor count (T/C endpoint: mean survival time, dose: 200.0 mg/kg/injection, schedule: Q01DX009 (ip), vehicle: saline with Tween-80): 0 of 6

CN(N)c1cccc2c1CCCC2
survivor count [2]: 0 of 6 | survivor count [3]: 0 of 6

CCCNC1=C(C)C(=O)C2=C(C1=O)[C@@H](COC(N)=O)[C@]1(O)[C@H]3[C@@H](CN21)N3C (some centres not stated)
T/C (T/C endpoint: mean survival time, dose: 200.0 mg/kg/injection, schedule: Q01DX001 (ip), vehicle: distilled water + Tween-80): 140 % of control

O=C(NO)c1ccccc1
survivor count (T/C endpoint: mean survival time, dose: 400.0 mg/kg/injection, schedule: Q01DX009 (ip), vehicle: saline sonified): 3 of 6 | survivor count (T/C endpoint: mean survival time, dose: 400.0 mg/kg/injection, schedule: Q01DX009 (ip), vehicle: saline): 2 of 6 and 4 of 10 | survivor count (T/C endpoint: mean survival time, dose: 800.0 mg/kg/injection, schedule: Q01DX009 (ip), vehicle: saline): 8 of 10

Cn1c(=O)c2c(nc(Br)n2CC(=O)CF)n(C)c1=O
T/C (T/C endpoint: mean survival time, dose: 50.0 mg/kg/injection, schedule: Q01DX005 (ip), vehicle: distilled water + Tween-80): 125 % of control | survivor count (T/C endpoint: mean survival time, dose: 400.0 mg/kg/injection, schedule: Q01DX005 (ip), vehicle: distilled water + Tween-80): 2 of 6

O=C(CCN1CC1)Nc1cccc(NC(=O)CCN2CC2)c1
T/C (T/C endpoint: mean survival time, dose: 1.1 mg/kg/injection, schedule: Q01DX009 (ip), vehicle: Klucel (hydroxypropylcellulose) (HPC)): 128 % of control | T/C (T/C endpoint: mean survival time, dose: 2.5 mg/kg/injection, schedule: Q01DX009 (ip), vehicle: Klucel (hydroxypropylcellulose) (HPC)): 129 % of control | T/C (T/C endpoint: mean survival time, dose: 5.0 mg/kg/injection, schedule: Q01DX009 (ip), vehicle: Klucel (hydroxypropylcellulose) (HPC)): 128 and 140 % of control | T/C (T/C endpoint: mean survival time, dose: 6.0 mg/kg/injection, schedule: Q01DX009 (ip), vehicle: Klucel (hydroxypropylcellulose) (HPC)): 132 % of control | T/C (T/C endpoint: mean survival time, dose: 10.0 mg/kg/injection, schedule: Q01DX009 (ip), vehicle: Klucel (hydroxypropylcellulose) (HPC)): 146 % of control | survivor count (T/C endpoint: mean survival time, dose: 40.0 mg/kg/injection, schedule: Q01DX009 (ip), vehicle: Klucel (hydroxypropylcellulose) (HPC)): 5 of 6 and 6 of 6 | survivor count (T/C endpoint: mean survival time, dose: 80.0 mg/kg/injection, schedule: Q01DX009 (ip), vehicle: Klucel (hydroxypropylcellulose) (HPC)): 1 of 6

Nc1ccc(CCc2ccccc2)cc1
T/C (T/C endpoint: mean survival time, dose: 100.0 mg/kg/injection, schedule: Q04DX002 (ip), vehicle: saline with Tween-80): 92, 98, 100, 102 % of control | T/C (T/C endpoint: mean survival time, dose: 200.0 mg/kg/injection, schedule: Q04DX002 (ip), vehicle: saline with Tween-80): 91, 98, 100, 114 % of control | survivor count [2]: 6 of 6 | survivor count (T/C endpoint: mean survival time, dose: 400.0 mg/kg/injection, schedule: Q04DX002 (ip), vehicle: saline with Tween-80): 1 of 3 and 4 of 6 | survivor count [3]: 0 of 6

Nc1ccc(C(OC(=O)c2cc3ccccc3c(Cc3c(O)c(C(=O)OC(c4ccc(N)cc4)(c4ccc(N)cc4)c4ccc(N)cc4)cc4ccccc34)c2O)(c2ccc(N)cc2)c2ccc(N)cc2)cc1
survivor count [1]: 4 of 6

Cc1nc(N)nc(N)c1N1CCN(c2ccc(C(=O)NC(C(=O)O)C(=O)O)cc2)CC1
T/C (T/C endpoint: median survival time, dose: 1.88 mg/kg/injection, schedule: Q01DX005 (ip), vehicle: Klucel + Tween-80): 131 % of control | T/C (T/C endpoint: median survival time, dose: 3.75 mg/kg/injection, schedule: Q01DX005 (ip), vehicle: Klucel + Tween-80): 142 % of control | survivor count (T/C endpoint: median survival time, dose: 30.0 mg/kg/injection, schedule: Q01DX005 (ip), vehicle: Klucel + Tween-80): 6 of 6

COc1c(C=O)c2c(c(OC)c1OC)-c1ccc(OC)c(=O)cc1[C@@H](NC(C)=O)CC2
T/C (T/C endpoint: median survival time, dose: 1.56 mg/kg/injection, schedule: Q01DX009 (ip), vehicle: Klucel (hydroxypropylcellulose) (HPC)): 125 and 136 % of control | T/C (T/C endpoint: median survival time, dose: 3.12 mg/kg/injection, schedule: Q01DX009 (ip), vehicle: Klucel (hydroxypropylcellulose) (HPC)): 133 and 136 % of control | T/C (T/C endpoint: median survival time, dose: 6.25 mg/kg/injection, schedule: Q01DX009 (ip), vehicle: Klucel (hydroxypropylcellulose) (HPC)): 133 and 139 % of control | T/C (T/C endpoint: median survival time, dose: 12.5 mg/kg/injection, schedule: Q01DX009 (ip), vehicle: Klucel (hydroxypropylcellulose) (HPC)): 144 % of control [4 of 6 alive] | survivor count (T/C endpoint: median survival time, dose: 25.0 mg/kg/injection, schedule: Q01DX009 (ip), vehicle: Klucel (hydroxypropylcellulose) (HPC)): 4 of 6 and 5 of 6

CCn1cnc(-c2ccccc2)c1-c1ccccc1
survivor count [2]: 6 of 6 | survivor count [3]: 6 of 6

CC1=NCCCN=C(C)CC[N-]CCC[N-]CC1.[Ni+2].[O-][Cl+3]([O-])([O-])O
survivor count (T/C endpoint: mean survival time, dose: 200.0 mg/kg/injection, schedule: Q04DX002 (ip), vehicle: saline): 1 of 3 | survivor count (T/C endpoint: mean survival time, dose: 400.0 mg/kg/injection, schedule: Q04DX002 (ip), vehicle: saline): 0 of 3

Nc1ncnc2c1c(-c1ncn[nH]1)cn2C1OC(CO)C(O)C1O (configuration not stated)
survivor count (T/C endpoint: mean survival time, dose: 100.0 mg/kg/injection, schedule: Q01DX005 (ip), vehicle: saline): 0 of 6 | survivor count (T/C endpoint: mean survival time, dose: 200.0 mg/kg/injection, schedule: Q01DX005 (ip), vehicle: saline): 0 of 6

CC(C)OC(=O)c1cc([N+](=O)[O-])cc([N+](=O)[O-])c1Sc1ncnc2nc[nH]c12
T/C (T/C endpoint: mean survival time, dose: 5.0 mg/kg/injection, schedule: Q01DX005 (ip), vehicle: other): 133 % of control | T/C (T/C endpoint: mean survival time, dose: 9.4 mg/kg/injection, schedule: Q01DX005 (ip), vehicle: other): 138 % of control | T/C (T/C endpoint: mean survival time, dose: 10.0 mg/kg/injection, schedule: Q01DX005 (ip), vehicle: other): 125 % of control | survivor count (T/C endpoint: mean survival time, dose: 37.5 mg/kg/injection, schedule: Q01DX005 (ip), vehicle: other): 2 of 3 | survivor count (T/C endpoint: mean survival time, dose: 75.0 mg/kg/injection, schedule: Q01DX005 (ip), vehicle: other): 1 of 3 | survivor count (T/C endpoint: mean survival time, dose: 150.0 mg/kg/injection, schedule: Q01DX005 (ip), vehicle: other): 0 of 3
